Among the data in paper PMC9206387 are binding values, retold here.

The chains behind the UniProt entries cited, without tags or fusion partners. Residues count along the entry.
UniProt Q8N423, residues 22-597: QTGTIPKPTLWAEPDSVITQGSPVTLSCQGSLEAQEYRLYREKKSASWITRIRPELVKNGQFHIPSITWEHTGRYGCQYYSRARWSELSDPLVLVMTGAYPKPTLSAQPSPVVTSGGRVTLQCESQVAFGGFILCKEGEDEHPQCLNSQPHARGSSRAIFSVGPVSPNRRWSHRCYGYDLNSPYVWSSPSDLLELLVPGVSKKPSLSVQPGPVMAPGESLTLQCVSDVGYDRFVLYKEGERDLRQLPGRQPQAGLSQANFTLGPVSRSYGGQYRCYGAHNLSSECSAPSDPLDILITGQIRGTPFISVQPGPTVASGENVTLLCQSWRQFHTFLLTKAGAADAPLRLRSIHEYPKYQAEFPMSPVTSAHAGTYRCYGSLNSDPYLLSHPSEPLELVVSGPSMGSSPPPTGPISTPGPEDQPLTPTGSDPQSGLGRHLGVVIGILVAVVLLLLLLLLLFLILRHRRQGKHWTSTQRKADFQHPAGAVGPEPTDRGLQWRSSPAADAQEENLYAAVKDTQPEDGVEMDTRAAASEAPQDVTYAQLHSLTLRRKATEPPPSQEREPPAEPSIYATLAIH
UniProt P29350: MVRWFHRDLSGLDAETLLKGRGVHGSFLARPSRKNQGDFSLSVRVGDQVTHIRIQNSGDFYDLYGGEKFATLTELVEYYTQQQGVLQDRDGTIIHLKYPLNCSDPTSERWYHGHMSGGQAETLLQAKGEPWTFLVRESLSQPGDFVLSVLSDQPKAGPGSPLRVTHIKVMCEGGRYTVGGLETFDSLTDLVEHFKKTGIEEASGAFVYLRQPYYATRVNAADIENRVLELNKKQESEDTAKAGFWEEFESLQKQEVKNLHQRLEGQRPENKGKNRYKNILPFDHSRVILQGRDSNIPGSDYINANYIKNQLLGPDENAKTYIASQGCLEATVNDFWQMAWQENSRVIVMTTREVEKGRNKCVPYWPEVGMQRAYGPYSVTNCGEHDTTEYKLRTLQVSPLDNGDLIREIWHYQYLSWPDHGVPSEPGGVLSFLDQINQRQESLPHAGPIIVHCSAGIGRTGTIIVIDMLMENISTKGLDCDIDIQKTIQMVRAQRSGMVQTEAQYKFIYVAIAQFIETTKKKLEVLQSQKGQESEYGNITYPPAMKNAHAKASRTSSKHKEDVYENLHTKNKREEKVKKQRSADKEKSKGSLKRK

The assay has as its target LILRB2, endogenous in HMC3 cells (human (endogenous in HMC3)) (UniProt Q8N423). Put plainly: co-IP; anti-LILRB2 immunoprecipitation from HMC3 cells incubated with oAβ-lipoprotein complex and indicated treatments (Ctrl IgG, Ab29, plate-bound 42D1) for 1 hour; immunoblot of pSHP1 and SHP1, LILRB2 as loading control. Background: Immunoblotting shows a protein as a band on a membrane.

Results are given in words; binding and its absence hold for the method and conditions named. Binding seen in cells or lysates may run through a third protein. Some results given as binding are weak or reduced against the parent protein; the word gives no strength.

As to “Src homology region 2 domain-containing phosphatase-1 (from UniProt P29350 1-595) (enzyme)”, the binding entry is recorded as “binds”.
